In paper PMC8983855:
These are yes or no findings as the source states them, for the method shown. In cells and extracts the contact can be indirect. Some binding calls cover weakened binding; strength is not graded here. Tags and fused reporters may be left off the sequences shown.

Protein sequences, listed by entry. Tags and fused reporters are not part of them.
UniProt P41279: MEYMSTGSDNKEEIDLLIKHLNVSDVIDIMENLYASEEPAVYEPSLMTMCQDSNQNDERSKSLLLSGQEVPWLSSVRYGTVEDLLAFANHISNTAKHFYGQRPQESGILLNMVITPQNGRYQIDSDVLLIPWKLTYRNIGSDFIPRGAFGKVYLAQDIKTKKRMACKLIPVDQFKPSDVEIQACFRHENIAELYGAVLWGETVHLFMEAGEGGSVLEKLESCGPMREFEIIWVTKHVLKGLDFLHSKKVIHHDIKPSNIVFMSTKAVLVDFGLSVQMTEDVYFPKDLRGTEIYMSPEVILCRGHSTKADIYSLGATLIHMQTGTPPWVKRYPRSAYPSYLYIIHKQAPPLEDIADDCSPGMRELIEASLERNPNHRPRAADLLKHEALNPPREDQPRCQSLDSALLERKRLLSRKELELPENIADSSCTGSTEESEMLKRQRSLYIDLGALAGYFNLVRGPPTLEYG

Biological target: HA-TPL2 (UniProt P41279)
Experiment: co-IP; HEK293 cells transfected with HA-TPL2 and Myc-IKKɛ constructs, with or without 20 ng/ml TNF for 1 hour; lysates with Protein A agarose beads and anti-HA (reciprocal: anti-Myc) antibody, 4 °C, 4 hours; washed 3 to 4 times with cell lysis buffer; WB

B1: Myc-IKKɛ^KD (K38A) (enzyme, UniProt Q14164 1-716)
chain: MQSTANYLWHTDDLLGQGATASVYKARNKKSGELVAVAVFNTTSYLRPREVQVREFEVLRKLNHQNIVKLFAVEETGGSRQKVLVMEYCSSGSLLSVLESPENAFGLPEDEFLVVLRCVVAGMNHLRENGIVHRDIKPGNIMRLVGEEGQSIYKLTDFGAARELDDDEKFVSVYGTEEYLHPDMYERAVLRKPQQKAFGVTVDLWSIGVTLYHAATGSLPFIPFGGPRRNKEIMYRITTEKPAGAIAGAQRRENGPLEWSYTLPITCQLSLGLQSQLVPILANILEVEQAKCWGFDQFFAETSDILQRVVVHVFSLSQAVLHHIYIHAHNTIAIFQEAVHKQTSVAPRHQEYLFEGHLCVLEPSVSAQHIAHTTASSPLTLFSTAIPKGLAFRDPALDVPKFVPKVDLQADYNTAKGVLGAGYQALRLARALLDGQELMFRGLHWVMEVLQATCRRTLEVARTSLLYLSSSLGTERFSSVAGTPEIQELKAAAELRSRLRTLAEVLSRCSQNITETQESLSSLNRELVKSRDQVHEDRSIQQIQCCLDKMNFIYKQFKKSRMRPGLGYNEEQIHKLDKVNFSHLAKRLLQVFQEECVQKYQASLVTHGKRMRVVHETRNHLRLVGCSVAACNTEAQGVQESLSKLLEELSHQLLQDRAKGAQASPPPIAPYPSPTRKDLLLHMQELCEGMKLLASDLLDNNRIIERLNRVPAPPDV
binding: binds
